Values from PubChem BioAssay AID602196 (INSERM, 2012)
Here is one part, drawn at random, of about 23,000 reagents tested. Of all reagents, 455 (2%) got an active call. 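Active includes both protection and sensitisation; some change values fall well beyond the stated -50 to +50 range.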 Entries without a mark were called inactive. Not all columns of the deposit are shown. Reagent sequences are not shown. Not given: the amount of reagent.

Aim: 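Modifiers of cisplatin sensitivity in A549 cells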
Cell system: human A549 lung cancer cells
Reagent: siRNA pair against human genes
Duration: 48 h transfection before cisplatin; time from cisplatin to read-out not stated
Challenge: cisplatin at a dose killing half of control-siRNA cells; exact dose and duration not given
Measurement: 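Cisplatin cell death as a shift from the 50% death seen with control siRNA; siRNAs toxic or growth-blocking alone scored 0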
Direction: two-siRNA summed score (-2 to +2): higher = both siRNAs protect from cisplatin killing; -2 means both sensitise; mean protection from cisplatin (shift in death): higher = protection from cisplatin killing
Rule for the call: 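Each siRNA scores 0 if harmful alone by LDH or WST-1, otherwise +1 if it reduces and -1 if it increases cisplatin killing; a gene is active when both siRNAs agree (sum +2 or -2)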
Meaning of the calls: active = both siRNAs shift cisplatin killing the same way; inactive = no consistent shift, or siRNA harmful alone

PROCR [SID131503918] gave two-siRNA summed score (-2 to +2) = 0; mean protection from cisplatin (shift in death) (%) = -7.2. SPATA31E1 [SID131504122] gave two-siRNA summed score (-2 to +2) = 0; mean protection from cisplatin (shift in death) (%) = -6.4. Against RBPJ [SID131511937], the values are two-siRNA summed score (-2 to +2) = 0; mean protection from cisplatin (shift in death) (%) = 4.9. LOC442275 [SID131515827] gave two-siRNA summed score (-2 to +2) = 0; mean protection from cisplatin (shift in death) (%) = 9.8. With knock-down of LOC392550 [SID131522766], the record shows two-siRNA summed score (-2 to +2) = 1; mean protection from cisplatin (shift in death) (%) = 23.3. Silencing of DKFZp666G057 [SID131510221] came out at: two-siRNA summed score (-2 to +2) = 0; mean protection from cisplatin (shift in death) (%) = 3.

SMYD4 [SID131503854] gave two-siRNA summed score (-2 to +2) = 0; mean protection from cisplatin (shift in death) (%) = -7.4. KIAA1272 [SID131514286] showed two-siRNA summed score (-2 to +2) = 0; mean protection from cisplatin (shift in death) (%) = 7.6. With knock-down of ABRAXAS1 [SID131511420], the record shows two-siRNA summed score (-2 to +2) = 0; mean protection from cisplatin (shift in death) (%) = 4.3. Silencing of LOC389822 [SID131518707] came out at: two-siRNA summed score (-2 to +2) = 0; mean protection from cisplatin (shift in death) (%) = 24.7. After knock-down of CCNG2 [SID131509992], the screen gave two-siRNA summed score (-2 to +2) = 0; mean protection from cisplatin (shift in death) (%) = 2.7. Depletion of ZNRF4 [SID131503900] resulted in: two-siRNA summed score (-2 to +2) = 0; mean protection from cisplatin (shift in death) (%) = -7.2.

A portion taken from the entries so far:
LOC392550 [SID131522766] — two-siRNA summed score (-2 to +2): 1; mean protection from cisplatin (shift in death) (%): 23.3
DKFZp666G057 [SID131510221] — two-siRNA summed score (-2 to +2): 0; mean protection from cisplatin (shift in death) (%): 3
